# Primary screen of a compound library

Amino acid sequences for entries named in this document (tags omitted). Residues count along the entry.
UniProt P9WNZ1, whole entry: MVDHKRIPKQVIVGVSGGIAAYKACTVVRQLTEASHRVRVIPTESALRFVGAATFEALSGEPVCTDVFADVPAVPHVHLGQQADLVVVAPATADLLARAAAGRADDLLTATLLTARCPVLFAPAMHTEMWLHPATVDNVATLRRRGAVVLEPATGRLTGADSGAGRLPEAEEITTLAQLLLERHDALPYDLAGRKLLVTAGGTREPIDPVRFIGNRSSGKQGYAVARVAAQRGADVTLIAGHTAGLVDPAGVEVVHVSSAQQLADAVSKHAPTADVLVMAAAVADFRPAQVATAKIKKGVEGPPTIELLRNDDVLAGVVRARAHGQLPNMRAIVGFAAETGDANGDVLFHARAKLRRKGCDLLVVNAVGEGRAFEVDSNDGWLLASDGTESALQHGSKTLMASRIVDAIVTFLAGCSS
UniProt A4I591, 1-473: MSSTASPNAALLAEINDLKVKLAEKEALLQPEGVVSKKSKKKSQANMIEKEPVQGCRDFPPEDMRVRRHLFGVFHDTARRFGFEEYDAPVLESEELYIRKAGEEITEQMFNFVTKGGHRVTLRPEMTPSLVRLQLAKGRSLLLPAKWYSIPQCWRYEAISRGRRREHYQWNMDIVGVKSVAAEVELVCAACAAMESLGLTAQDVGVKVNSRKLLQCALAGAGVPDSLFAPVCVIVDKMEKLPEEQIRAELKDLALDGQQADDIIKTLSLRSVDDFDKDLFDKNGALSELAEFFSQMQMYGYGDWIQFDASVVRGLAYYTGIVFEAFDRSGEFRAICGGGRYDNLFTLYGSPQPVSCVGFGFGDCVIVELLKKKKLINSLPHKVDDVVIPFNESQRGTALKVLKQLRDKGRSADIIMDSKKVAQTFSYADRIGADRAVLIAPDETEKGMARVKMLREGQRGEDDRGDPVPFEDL

Each number is a percent effect as filed.
How 0% and 100% were set is not recorded. Most values in the screen are low, and negative values occur.
The compounds are a random part of those screened.
Two or more numbers in one place are separate tests of the same structure; such repeats can differ widely.
A dash means the value is not listed here; it may have been measured.

CoaBC: 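Enzyme assay of CoaBC with a phosphate dye (Biomol Green) read at 650 nm. Target: Coenzyme A biosynthesis protein CoaBC, Mycobacterium tuberculosis (UniProt P9WNZ1). Tested at 30 µM. Direction is inferred from only a few compounds that gave an IC50; most scored high, so higher reads as stronger inhibition. Most strong results did not repeat in a second test. About 67,000 compounds were tested under these conditions; 0.06% (about 40) showed 50% or more at least once.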
LiHisRS: 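Enzyme assay of histidyl-tRNA synthetase; the read-out is not stated. Target: Histidine-tRNA ligase, Leishmania infantum (UniProt A4I591). Tested at 30 µM. Higher reads as stronger inhibition (inferred: compounds with an IC50 in retests scored well above the rest). The assay is labelled LdHisRS but filed under L. infantum. Of about 69,000 compounds tested this way, about 410 (0.6%) reached 50% or more in at least one test.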
Leishmania in macrophages: 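Cell assay of Leishmania donovani living inside macrophages; the read-out is not stated. Compounds at 30 µM. The record gives no direction; compounds that gave an IC50 in retests scored well above the rest, so higher reads as stronger inhibition. About 69,000 compounds were tested under these conditions; 1.5% (about 1,000) showed 50% or more at least once.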

compound,CoaBC,LiHisRS,Leishmania in macrophages
CCc1ccsc1C(=O)N1CCN(CC(N)=O)CC1,-10.19,-1.709,-12.46
CN(C)c1ncc(-c2cncnc2)c(C2CNCCO2)n1.Cl (stereo not drawn),-,-,-0.615
CC(=O)N1CC(c2ccnc(Nc3nccs3)n2)C1,22.03 & 17.01,9.79,27.37
CCOc1ccc(N(C)Cc2nc(C)c(C)o2)cc1,-7.645,16.44,-22.8
COc1ccc(CN(CC2CCCO2)C(=O)CN2CCCCC2=O)cc1 (stereo not drawn),1.489,17.02,1.073
O=C1NCCCCC1Sc1ccc(F)c(F)c1 (stereo not drawn),-0.8505,13.04,-7.229
Cc1nc(Nc2ncccn2)cc(C2CCCN2C)n1 (stereo not drawn),-0.6196,10,19.29
COc1ccc(C2CCCN2C(=O)c2ccnc(NC3CC3)c2)cc1 (stereo not drawn),6.311,14.46,-35.77
CN1CC(C(=O)N(C)Cc2cc(-c3cccnc3)no2)NC1=O (stereo not drawn),-,14.17,11.91
Cc1nc2n(n1)CC(Nc1nc(C(F)(F)F)nc3ccccc13)CC2 (stereo not drawn),-5.368,12,12.85
COCCN1CC2(CCCN(C(=O)NCCc3cccs3)C2)CCC1=O (stereo not drawn),7.09,10.96,-0.04773
CCc1noc(C2CCCCN2C(=O)c2ccn(C3CCCC3)n2)n1 (stereo not drawn),8.21,17.48,20.43
CCOc1ccc(NC(C)=O)cc1S(=O)(=O)Nc1nnc(C)s1,1.302,14.61,46.21
Cc1ccc(CN2Cc3nnn(C)c3C(COCc3ccccc3)C2)o1 (stereo not drawn),3.361,20,-
COc1ccc(OC)c(C(O)CNC(=O)Nc2cc(C)nn2C)c1 (stereo not drawn),3.325,3.67,11.43
CC(=O)NCc1nn(C)c2c1CN(Cc1ccsc1)C2.O=C(O)C(F)(F)F,-,-,21.58
CC1c2ncc(COCC3CCOCC3)n2CCN1C(=O)c1ccoc1 (stereo not drawn),4.583,17.95,5.624
COc1cccc(CNC(=O)c2ccccc2-n2cc(CN)cn2)c1,2.107,6,1.613
CC1COc2ccccc2N1C(=O)CCc1cscn1 (stereo not drawn),6.456,11.83,9
O=C(CCc1ccc(Cl)cc1)NC1CCN(c2cccc(F)c2)CC1,-4.707,3.54,34.25
CCCNC(=O)CCC(=O)Nc1cc2sc(C)nc2cc1OC,1.818,12.9,28.53
O=c1n(Cc2ccccc2F)nc2ncccn12,2.906,21.74,12.45
CO[C@@H]1CCN(C(=O)c2ccccn2)[C@H]1Cc1ccccc1.O=C(O)C(F)(F)F,-,-,30.93
OCc1nnn2c1CN(Cc1cccnc1)CCC2,4.738,22.22,-63.16
CC(C)=Cc1c(-c2ccccc2)ncn1CCS(C)(=O)=O,-5.832,2.857,6.106
COCC1c2c(cnn2C)CCN1C(=O)c1cccn1C (stereo not drawn),1.98,-22.52,-
CCN(C)C(=O)c1ccc(N2CCC(Oc3cccc(F)c3)CC2)nc1,4.218,0,-12.47
NC(=O)CSCC(=O)NCC1CCCC1,8.418,15.96,12
CS(=O)(=O)c1ccc(NC(=O)NCc2ccc3c(c2)CCC3)cn1,-2.85,2.128,31.44
Cc1ccsc1C(O)CNS(=O)(=O)Cc1ccc(F)cc1 (stereo not drawn),-0.7663,20.78,8.561
Cc1ccc(CN(C)C(=O)C(C)n2cncn2)o1 (stereo not drawn),-1.033,2.74,-1.549
O=C1CCNc2ccccc2CN1Cc1ccco1,2.906,12.24,-0.7499
CC(C)c1ccc(CNC(c2ccc(F)cn2)C(C)C)cc1 (stereo not drawn),3.802,8.163,-9.887
c1cnc(NCc2nnn3c2CN(CC2CC2)CCC3)nc1,0.4878,5.66,-
CN(C)C(=O)c1ccccc1NC(=O)N[C@@H]1c2ccccc2C[C@@H]1O,1.217,17.78,4.505
[H][C@@]12CN(Cc3cnn(C)c3)C[C@@]1([H])N(Cc1ccncc1)C(=O)CO2,-,-,18.43
COc1ccc(C(C)N2CCC(C(=O)N(C)C)CC2)cc1Cl (stereo not drawn),5.6,17.95,22.18
Cc1cc(C(=O)N2CCCC2)ccc1NCc1nc(CC(C)C)no1,4.516,19.13,25.2
CCc1n[nH]c(C2CN(C(=O)COCC(F)(F)F)CCO2)n1 (stereo not drawn),0.1211,7.609,31.57
CCCNC(=O)C1CCN(Cc2csc(C(C)(C)C)n2)CC1,4.37,-5.618,28.9
COCCn1c2c(ccc1=O)CC(NC(=O)c1cscn1)CC2 (stereo not drawn),2.217,16,-2.765
COc1ccc2c(c1)C1(CCN(Cc3ccoc3)CC1)N(C)CC2,0.8872,20.39,38.38
CN(Cc1ccccc1F)C(=O)c1cc(Cl)c[nH]1,-3.281,19.57,30.96
Cc1cc(C)n(CC2CCCN2C(=O)Cc2csc(C)n2)n1 (stereo not drawn),2.616,12.82,17.64
Cc1cccc(CN2CCCC(O)(CNCc3cccc(F)c3)C2=O)c1 (stereo not drawn),7.202,1.075,21.11
CN1C(=O)CCC12CCCN(C(=O)c1ccncc1F)C2.O=C(O)C(F)(F)F (stereo not drawn),-,-,42.79
COc1c(Br)c(C(=O)NC2CCCC2)nn1C,3.418,22.5,-36.96
O=C(O)C(F)(F)F.[H][C@@]12CCN(C(=O)c3cccnc3OC)C[C@@]1([H])O[C@@H](c1nnc(C)[nH]1)C2,-,-,-6.914
Nc1nccc(C2CCN(CC3CC3)C2)n1 (stereo not drawn),4.429,1.418,24.41
Cc1nc2ccccn2c1CN(Cc1cccnc1)CC1CCCO1 (stereo not drawn),-6.61,3.846,35.37
Cc1cc(S(=O)(=O)N(C)CC(N)=O)ccc1Br,5.058,13.51,15.18
CO[C@H]1CCN(C(=O)c2ccc3[nH]nnc3c2)C[C@@]12CCCO2,-1.456,14.29,9.646
COc1ccc(N)c(N2CCN(C(C)=O)CC2)n1,-8.333,61.61,22.62
COc1cc(F)ccc1-c1cnc(N)cn1,4.668,13.49,-11.95

Repeated from the top, 4 entries:

CCc1ccsc1C(=O)N1CCN(CC(N)=O)CC1 gave CoaBC: -10.19%; LiHisRS: -1.709%; Leishmania in macrophages: -12.46%.
CN(C)c1ncc(-c2cncnc2)c(C2CNCCO2)n1.Cl (stereo not drawn) gave Leishmania in macrophages: -0.615%.
CC(=O)N1CC(c2ccnc(Nc3nccs3)n2)C1 gave CoaBC: 22.03% & 17.01%; LiHisRS: 9.79%; Leishmania in macrophages: 27.37%.
CCOc1ccc(N(C)Cc2nc(C)c(C)o2)cc1 gave CoaBC: -7.645%; LiHisRS: 16.44%; Leishmania in macrophages: -22.8%.

Data taken from ChEMBL document CHEMBL3988442, “University of Dundee, Small-Polar-MMV Screening Library” (2021).